For assay [1], the target named is SFB-tagged CREB1 (human) (UniProt P16220). Kind of assay: affinity purification with mass spectrometry; TAP (streptavidin beads, biotin elution, S-protein beads; NETN buffer) of C-terminally SFB-tagged bait from HEK293T; soluble fraction (supernatant of the NETN lysate); forward and reciprocal purifications.
The target in assay [2] is T1, SFB-tagged NFATC1 (human) (UniProt O95644).
T1 sequence: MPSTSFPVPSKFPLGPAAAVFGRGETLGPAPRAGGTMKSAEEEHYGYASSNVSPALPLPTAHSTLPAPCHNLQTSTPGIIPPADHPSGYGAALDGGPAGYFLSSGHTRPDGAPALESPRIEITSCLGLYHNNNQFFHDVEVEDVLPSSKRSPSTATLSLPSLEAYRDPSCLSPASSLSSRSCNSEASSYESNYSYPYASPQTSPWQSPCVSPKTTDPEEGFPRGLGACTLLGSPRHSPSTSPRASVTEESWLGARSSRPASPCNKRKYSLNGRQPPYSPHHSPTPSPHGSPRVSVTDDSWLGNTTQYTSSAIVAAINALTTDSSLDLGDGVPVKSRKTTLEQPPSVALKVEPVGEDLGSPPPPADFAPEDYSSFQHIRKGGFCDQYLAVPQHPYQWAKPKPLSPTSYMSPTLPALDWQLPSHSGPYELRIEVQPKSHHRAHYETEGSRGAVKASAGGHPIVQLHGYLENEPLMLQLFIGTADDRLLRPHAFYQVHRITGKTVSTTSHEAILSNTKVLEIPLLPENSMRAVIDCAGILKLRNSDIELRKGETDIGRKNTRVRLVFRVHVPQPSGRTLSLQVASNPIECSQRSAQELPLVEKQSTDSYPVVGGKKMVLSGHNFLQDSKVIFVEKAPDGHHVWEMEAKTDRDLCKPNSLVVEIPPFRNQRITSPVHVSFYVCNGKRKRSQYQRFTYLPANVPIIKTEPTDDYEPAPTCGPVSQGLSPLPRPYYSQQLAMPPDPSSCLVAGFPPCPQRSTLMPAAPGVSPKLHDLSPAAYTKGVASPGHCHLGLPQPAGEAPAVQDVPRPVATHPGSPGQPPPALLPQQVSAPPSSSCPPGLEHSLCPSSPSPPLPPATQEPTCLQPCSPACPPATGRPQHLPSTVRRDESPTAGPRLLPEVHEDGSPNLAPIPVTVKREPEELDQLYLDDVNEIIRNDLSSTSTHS
The assay is described as above.

The chains behind the UniProt entries cited, without tags or fusion partners.
UniProt P16220: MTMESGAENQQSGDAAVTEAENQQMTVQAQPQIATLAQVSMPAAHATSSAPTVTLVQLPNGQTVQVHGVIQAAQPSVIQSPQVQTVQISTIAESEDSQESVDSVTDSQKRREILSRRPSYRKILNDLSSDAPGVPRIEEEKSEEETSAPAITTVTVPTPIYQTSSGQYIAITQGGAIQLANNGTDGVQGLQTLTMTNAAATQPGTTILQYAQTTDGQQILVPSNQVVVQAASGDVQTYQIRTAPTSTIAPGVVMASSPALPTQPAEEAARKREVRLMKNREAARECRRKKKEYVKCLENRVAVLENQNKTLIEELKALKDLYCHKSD
UniProt Q9UKB1: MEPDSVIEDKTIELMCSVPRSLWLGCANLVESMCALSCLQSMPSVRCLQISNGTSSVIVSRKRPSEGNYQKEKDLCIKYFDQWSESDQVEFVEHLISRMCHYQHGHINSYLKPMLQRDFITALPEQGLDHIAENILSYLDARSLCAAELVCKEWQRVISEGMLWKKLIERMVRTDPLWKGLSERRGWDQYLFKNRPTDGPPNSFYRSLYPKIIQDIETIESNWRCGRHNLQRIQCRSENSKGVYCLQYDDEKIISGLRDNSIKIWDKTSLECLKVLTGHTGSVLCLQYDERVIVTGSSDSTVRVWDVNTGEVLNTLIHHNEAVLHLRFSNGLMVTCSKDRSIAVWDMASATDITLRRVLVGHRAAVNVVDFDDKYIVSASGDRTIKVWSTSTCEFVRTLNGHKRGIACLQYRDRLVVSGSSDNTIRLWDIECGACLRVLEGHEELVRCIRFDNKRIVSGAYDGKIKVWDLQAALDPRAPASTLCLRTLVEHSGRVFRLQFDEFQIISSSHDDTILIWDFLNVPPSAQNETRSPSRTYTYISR

For assay [3], the target named is SFB-tagged CREB1 (human) (UniProt P16220). Kind of assay: affinity purification with mass spectrometry; TAP (streptavidin beads, biotin elution, S-protein beads; NETN buffer) of C-terminally SFB-tagged bait from HEK293T; chromatin fraction (pellet after NETN lysis, digested with TurboNuclease); forward and reciprocal purifications; some baits also after drug treatment.

The target of assay [4] is T1, SFB-tagged NFATC1 (human). The description is as above.
Assay [5] concerns the target βTRCP2/FBXW11 as bait of the reciprocal TAP/MS (UniProt Q9UKB1). Kind of assay: affinity purification with mass spectrometry; same TAP/MS of SFB-tagged bait from HEK293T; the fraction in which the hit was found is not given.
Assay [6] addresses SFB-tagged RBPJ (human), Q06330. Kind of assay: affinity purification with mass spectrometry; TAP (streptavidin beads, biotin elution, S-protein beads; NETN buffer) of C-terminally SFB-tagged bait from HEK293T; soluble fraction (supernatant of the NETN lysate); forward and reciprocal purifications. The following applies: remark: other sources report otherwise.
Assay [7] shares this target. Briefly: affinity purification with mass spectrometry; TAP (streptavidin beads, biotin elution, S-protein beads; NETN buffer) of C-terminally SFB-tagged bait from HEK293T; chromatin fraction (pellet after NETN lysis, digested with TurboNuclease); forward and reciprocal purifications; some baits also after drug treatment. The settings on record: remark: other sources report otherwise.

Binding data for five molecules are collected here from paper PMC4332150.

Results are given in words; binding and its absence hold for the method and conditions named. Binding seen in cells or lysates may run through a third protein. A yes stands for co-enrichment or nearness to the bait. Other partners may have been found. For part of these data: No binding means not detected with the bait. For part of these data: Tags and fused reporters may be left off the sequences shown.

B1: ATF1 (endogenous) (protein, UniProt P18846 1-271)
chain: MEDSHKSTTSETAPQPGSAVQGAHISHIAQQVSSLSESEESQDSSDSIGSSQKAHGILARRPSYRKILKDLSSEDTRGRKGDGENSGVSAAVTSMSVPTPIYQTSSGQYIAIAPNGALQLASPGTDGVQGLQTLTMTNSGSTQQGTTILQYAQTSDGQQILVPSNQVVVQTASGDMQTYQIRTTPSATSLPQTVVMTSPVTLTSQTTKTDDPQLKREIRLMKNREAARECRRKKKEYVKCLENRVAVLENQNKTLIEELKTLKDLYSNKSV
As to B1, the binding result with SFB-tagged CREB1 (human) [1] was “binds”; in assay [2], “no binding (only in the soluble fraction)”; with SFB-tagged CREB1 (human) [3], “binds”; in assay [4] it was “binds”.

B2: EEF2K (endogenous) (protein, UniProt O00418 1-725)
chain: MADEDLIFRLEGVDGGQSPRAGHDGDSDGDSDDEEGYFICPITDDPSSNQNVNSKVNKYYSNLTKSERYSSSGSPANSFHFKEAWKHAIQKAKHMPDPWAEFHLEDIATERATRHRYNAVTGEWLDDEVLIKMASQPFGRGAMRECFRTKKLSNFLHAQQWKGASNYVAKRYIEPVDRDVYFEDVRLQMEAKLWGEEYNRHKPPKQVDIMQMCIIELKDRPGKPLFHLEHYIEGKYIKYNSNSGFVRDDNIRLTPQAFSHFTFERSGHQLIVVDIQGVGDLYTDPQIHTETGTDFGDGNLGVRGMALFFYSHACNRICESMGLAPFDLSPRERDAVNQNTKLLQSAKTILRGTEEKCGSPQVRTLSGSRPPLLRPLSENSGDENMSDVTFDSLPSSPSSATPHSQKLDHLHWPVFSDLDNMASRDHDHLDNHRESENSGDSGYPSEKRGELDDPEPREHGHSYSNRKYESDEDSLGSSGRVCVEKWNLLNSSRLHLPRASAVALEVQRLNALDLEKKIGKSILGKVHLAMVRYHEGGRFCEKGEEWDQESAVFHLEHAANLGELEAIVGLGLMYSQLPHHILADVSLKETEENKTKGFDYLLKAAEAGDRQSMILVARAFDSGQNLSPDRCQDWLEALHWYNTALEMTDCDEGGEYDGMQDEPRYMMLAREAEMLFTGGYGLEKDPQRSGDLYTQAAEAAMEAMKGRLANQYYQKAEEAWAQMEE
Turning to B2, the binding result in assay [5] is recorded as “binds”.

B3: USP47 (endogenous) (protein, UniProt Q96K76 1-1375)
chain: MVPGEENQLVPKEDVFWRCRQNIFDEMKKKFLQIENAAEEPRVLCIIQDTTNSKTVNERITLNLPASTPVRKLFEDVANKVGYINGTFDLVWGNGINTADMAPLDHTSDKSLLDANFEPGKKNFLHLTDKDGEQPQILLEDSSAGEDSVHDRFIGPLPREGSGGSTSDYVSQSYSYSSILNKSETGYVGLVNQAMTCYLNSLLQTLFMTPEFRNALYKWEFEESEEDPVTSIPYQLQRLFVLLQTSKKRAIETTDVTRSFGWDSSEAWQQHDVQELCRVMFDALEQKWKQTEQADLINELYQGKLKDYVRCLECGYEGWRIDTYLDIPLVIRPYGSSQAFASVEEALHAFIQPEILDGPNQYFCERCKKKCDARKGLRFLHFPYLLTLQLKRFDFDYTTMHRIKLNDRMTFPEELDMSTFIDVEDEKSPQTESCTDSGAENEGSCHSDQMSNDFSNDDGVDEGICLETNSGTEKISKSGLEKNSLIYELFSVMVHSGSAAGGHYYACIKSFSDEQWYSFNDQHVSRITQEDIKKTHGGSSGSRGYYSSAFASSTNAYMLIYRLKDPARNAKFLEVDEYPEHIKNLVQKERELEEQEKRQREIERNTCKIKLFCLHPTKQVMMENKLEVHKDKTLKEAVEMAYKMMDLEEVIPLDCCRLVKYDEFHDYLERSYEGEEDTPMGLLLGGVKSTYMFDLLLETRKPDQVFQSYKPGEVMVKVHVVDLKAESVAAPITVRAYLNQTVTEFKQLISKAIHLPAETMRIVLERCYNDLRLLSVSSKTLKAEGFFRSNKVFVESSETLDYQMAFADSHLWKLLDRHANTIRLFVLLPEQSPVSYSKRTAYQKAGGDSGNVDDDCERVKGPVGSLKSVEAILEESTEKLKSLSLQQQQDGDNGDSSKSTETSDFENIESPLNERDSSASVDNRELEQHIQTSDPENFQSEERSDSDVNNDRSTSSVDSDILSSSHSSDTLCNADNAQIPLANGLDSHSITSSRRTKANEGKKETWDTAEEDSGTDSEYDESGKSRGEMQYMYFKAEPYAADEGSGEGHKWLMVHVDKRITLAAFKQHLEPFVGVLSSHFKVFRVYASNQEFESVRLNETLSSFSDDNKITIRLGRALKKGEYRVKVYQLLVNEQEPCKFLLDAVFAKGMTVRQSKEELIPQLREQCGLELSIDRFRLRKKTWKNPGTVFLDYHIYEEDINISSNWEVFLEVLDGVEKMKSMSQLAVLSRRWKPSEMKLDPFQEVVLESSSVDELREKLSEISGIPLDDIEFAKGRGTFPCDISVLDIHQDLDWNPKVSTLNVWPLYICDDGAVIFYRDKTEELMELTDEQRNELMKKESSRLQKTGHRVTYSPRKEKALKIYLDGAPNKDLTQD
Take B3: the binding result in assay [5] was “binds”.

B4: CDC25A (endogenous) (protein, UniProt P30304 1-524)
chain: MELGPEPPHRRRLLFACSPPPASQPVVKALFGASAAGGLSPVTNLTVTMDQLQGLGSDYEQPLEVKNNSNLQRMGSSESTDSGFCLDSPGPLDSKENLENPMRRIHSLPQKLLGCSPALKRSHSDSLDHDIFQLIDPDENKENEAFEFKKPVRPVSRGCLHSHGLQEGKDLFTQRQNSAPARMLSSNERDSSEPGNFIPLFTPQSPVTATLSDEDDGFVDLLDGENLKNEEETPSCMASLWTAPLVMRTTNLDNRCKLFDSPSLCSSSTRSVLKRPERSQEESPPGSTKRRKSMSGASPKESTNPEKAHETLHQSLSLASSPKGTIENILDNDPRDLIGDFSKGYLFHTVAGKHQDLKYISPEIMASVLNGKFANLIKEFVIIDCRYPYEYEGGHIKGAVNLHMEEEVEDFLLKKPIVPTDGKRVIVVFHCEFSSERGPRMCRYVRERDRLGNEYPKLHYPELYVLKGGYKEFFMKCQSYCEPPSYRPMHHEDFKEDLKKFRTKSRTWAGEKSKREMYSRLKKL
On to B4, for which, in assay [5], the binding entry is given as “binds”.

B5: FBXO42 (endogenous), Q6P3S6 1-717 (protein)
chain: MASSSDSEDDSFMAVDQEETVLEGTMDQDEEPHPVLEAEETRHNRSMSELPEEVLEYILSFLSPYQEHKTAALVCKQWYRLIKGVAHQCYHGFMKAVQEGNIQWESRTYPYPGTPITQRFSHSACYYDANQSMYVFGGCTQSSCNAAFNDLWRLDLNSKEWIRPLASGSYPSPKAGATLVVYKDLLVLFGGWTRPSPYPLHQPERFFDEIHTYSPSKNWWNCIVTTHGPPPMAGHSSCVIDDKMIVFGGSLGSRQMSNDVWVLDLEQWAWSKPNISGPSPHPRGGQSQIVIDDATILILGGCGGPNALFKDAWLLHMHSGPWAWQPLKVENEEHGAPELWCHPACRVGQCVVVFSQAPSGRAPLSPSLNSRPSPISATPPALVPETREYRSQSPVRSMDEAPCVNGRWGTLRPRAQRQTPSGSREGSLSPARGDGSPILNGGSLSPGTAAVGGSSLDSPVQAISPSTPSAPEGYDLKIGLSLAPRRGSLPDQKDLRLGSIDLNWDLKPASSSNPMDGMDNRTVGGSMRHPPEQTNGVHTPPHVASALAGAVSPGALRRSLEAIKAMSSKGPSASAALSPPLGSSPGSPGSQSLSSGETVPIPRPGPAQGDGHSLPPIARRLGHHPPQSLNVGKPLYQSMNCKPMQMYVLDIKDTKEKGRVKWKVFNSSSVVGPPETSLHTVVQGRGELIIFGGLMDKKQNVKYYPKTNALYFVRAKR
Turning to B5, the binding result in assay [6] and in assay [7] was “binds” each time.
